SMILES strings stand for the structures.

Consider one molecule from patent US20150258127A1, “METHODS FOR PREVENTING ANTIPHOSPHOLIPID SYNDROME (APS)” (INSERM (INSTITUT NATIONAL DE LA SANTÉ ET DE LA RECHERCHE …, priority 2012, published 2015).

The assay has as its system P-AKT (Ser^473) (mTORC2) in human micro vascular endothelial cells (HMEC). Put plainly: Western blot of P-AKT (Ser473) (mTORC2) in HMEC exposed to APA IgG. In kind it is cell-based. The following applies: HMEC pretreated one hour with inhibitor (PP242 0.5 μM; LY294002 20 μM), then APA IgG 5 minutes. Here is the method:
All experiments were performed in duplicates.
Western blots were performed as previously described^28. […] Images were acquired using Fusion FX7 system (Vilber Loumart) and analysed using Bio-1D software (Vilber Loumart).
Background: A western blot detects proteins with antibodies after separation by electrophoresis.

Take `CC(C)n1nc(-c2cc3cc(O)ccc3[nH]2)c2c(N)ncnc21` [PP242]: the “APA-induced AKT phosphorylation / activation of the AKT pathway” value is listed as “completely abolished”.
